These results are taken from patent publication US20260108514A1, “METHOD OF INHIBITING EPITHELIAL-MESENCHYMAL TRANSITION AND CANCER METASTASIS” (Agency for Science, Technology and Research, priority 2022, published 2026).

Each structure is given as a SMILES string. Where a name gives a salt, the structure may show the parent alone.

The subject of the series is HMLE-ZEB1 cells (CDH1prom-luc reporter, Dox-induced ZEB1 driven EMT). Briefly: Dual-Glo luciferase CDH1prom-luc reporter screen of LOPAC and bioactive lipid library. Particulars: Renilla luciferase (constitutive CMV), readout for cell numbers; primary screen. The series is classed as cell-based. The source says:
FIG. 1: Design of a cell-based reporter assay. Doxycycline (Dox)-induced ZEB1 driven EMT (HMLE-ZEB1 cells) was used to conduct high-throughput screen for identifying inhibitors of epithelial-mesenchymal transition.
A) Dual-Glo luciferase assay to test gene promoters that include CD44, CD166, CDH1 and SERPINE1 in Dox-induced HMLE-ZEB1 cells. Data are represented as ratio of mean Firefly luciferase (FF) and Renilla luciferase (Ren) readings; n=3. B) Dual-glo Luciferase assay of HMLE-ZEB1 screened with LOPAC library. Data are represented as ratio of mean Firefly luciferase (FF) and Renilla luciferase (Ren) readings, n=3. Hits are circled in red. C) Average Z-score of Dual-glo Luciferase assay in HMLE-ZEB1 cells screened with LOPAC library; n=4. D) Validation of screening hits by Dual-glo Luciferase assay in HMLE-ZEB1 screened with LOPAC library by primary and secondary screens. E) Hits from secondary screen validated at different concentrations 5, 1.66, 0.55, 0.18 and 0.06 μM. N=3 F) Validation of the screening hits by CDH1 gene expression. n=3. G) Top, Phase-contrast images of morphological changes of HMLE-ZEB1 cells in DMSO and Dox-treated cells in presence or absence of Kenpaullone (0.25 μM) (DMSO, Dox, Ken, and Dox+Ken). Scale represents 100 μm. Second, Immunofluorescence staining of epithelial marker E-Cadherin (ECAD) and mesenchymal marker Vimentin in DMSO, Dox, Ken and Dox+Ken treated cells. Scale represents 50 μm. Bottom, Fluorescence activated sorting analysis (FACS) of CD44 and CD24 staining in Dox induced HMLE-ZEB1 cells in presence or absence of Ken. Numbers within graph represent percentages of gated cells indicating CD44high CD24low (above) and CD44lowCD24high cells (below). H) TdTomato-labelled MCF7-SLUG+SOX9 cells that were injected orthotopically into the mammary fat pads and induced by Doxycycline (+Dox) to express SLUG and SOX9 to promote metastasis in shControl and shGSK3β cells. Top, Representative fluorescence images of whole-mount of lung and second, histology of lung sections. Scale bar represents 100 μm. Third, Tumors were stained for GSK3β and counterstained with hematoxylin. Scale bar represents 100 μm. Fourth, primary tumors were also stained for E-cadherin, Fibronectin and DAPI. Scale bar represents 50 μm. n=3-5 mice for each group. I) Total number of metastasis as counted from whole mount of lung in mice implanted with in shControl and shGSK3β cells. n=3-5 for each group. **P<0.01 and ***P<0.001 as determined by as determined by one-way ANOVA with Dunnet's multiple comparison test. All data are presented as mean+/−SEM. *P<0.05, **P<0.01, ***P<0.001 and ****P<0.0001, not significant (ns) as determined by unpaired two-tailed t-test unless otherwise stated.
FIG. 3: Identification of inhibitors of epithelial-mesenchymal transition from high-throughput screening of bioactive lipid library with the screening platform. A) Dual-glo Luciferase assay of HMLE-ZEB1 screened with bioactive lipid library. Data are represented as ratio of mean Firefly luciferase (FF) and Renilla luciferase (Ren) readings, n=3. Hits are circled in red. B) Average Z-score of Dual-glo Luciferase assay in HMLE-ZEB1 cells screened with bioactive lipid library; n=4. Compounds shown in red indicates top hits. C) Protein expression of EMT markers E-cadherin, Fibronectin Vimentin and Snail in DMSO and 4-OHT induced cells treated with and without Cay10603 (10 nM) in HMLE-TWIST. GAPDH was used as a loading control. D) (First)Morphological evidence and (second) Fluorescence activated sorting analysis (FACS) of CD44 and CD24 staining in DMSO, 4-OHT, CAY10603 and 4-OHT+CAY10603 treated cells. Numbers within graph represent percentages of gated cells indicating CD44highCD24low (above) and CD44lowCD24high cells (below). E) Representative bright-field images and quantification of DMSO,4-OHT, CAY,4-OHT+CAY treated cells as shown by of scratch wound migration assay before and after 6 h of scratch in presence or absence of 4-OHT-induced EMT. […]

The compound `O=c1cc(-c2ccc(O)cc2)oc2cc(O)cc(O)c12` [Apigenin] came in with an RL-average of 26889.33333.

With `Cc1cc(O)c2c(c1)C(=O)c1cc(O)cc(O)c1C2=O` [Emodin], the RL-average is listed as 33922.33333.

The compound `O=C1Cc2c([nH]c3ccc(Br)cc23)-c2ccccc2N1` [Kenpaullone] came in with an RL-average of 25920.

The compound `Nc1ccc(-c2ccc3ccccc3n2)cc1` [BF-170 hydrochloride] registered an RL-average of 47781.

The compound `Cc1ccc(C(=O)Cn2c3c(sc2=N)CCCC3)cc1` [Pifithrin-α] displayed an RL-average of 26922.5.

In the case of `COc1cccc(-c2cc(=O)c3ccccc3o2)c1N` [PD 98,059], the RL-average was 48143.75.

Compound `CCCCCCCCCCCCCCCCCCOC[C@H](COP(=O)([O-])OCC[N+](C)(C)C)OC` [2-O-methyl PAF C-18] registered an RL-average of 13317.

`CCc1ccc(/C=C2/SC(=S)NC2=O)cc1` [10058-F4] gave an RL-average of 16782.

With `CC(C)(C)OC(=O)Nc1ccc(-c2cc(C(=O)NCCCCCCC(=O)NO)no2)cc1` [CAY 10603], the RL-average came to 16158.
